Assay results from article PMC5936754.
These are yes or no findings as the source states them, for the method shown. In cells and extracts the contact can be indirect. Some results given as binding are weak or reduced against the parent protein; the word gives no strength. Where a sequence is shown, tags or fusion partners need not be part of it.

Sequences of proteins named here, by UniProt entry; tags and fusion partners are left off. A change or cut given only in a name is not applied to a line headed by its entry. A line that says so, or that is headed by a name, gives the form on record, which may keep a tag or linker.
Myc-Stk24 (Q9Y6E0-2, form named): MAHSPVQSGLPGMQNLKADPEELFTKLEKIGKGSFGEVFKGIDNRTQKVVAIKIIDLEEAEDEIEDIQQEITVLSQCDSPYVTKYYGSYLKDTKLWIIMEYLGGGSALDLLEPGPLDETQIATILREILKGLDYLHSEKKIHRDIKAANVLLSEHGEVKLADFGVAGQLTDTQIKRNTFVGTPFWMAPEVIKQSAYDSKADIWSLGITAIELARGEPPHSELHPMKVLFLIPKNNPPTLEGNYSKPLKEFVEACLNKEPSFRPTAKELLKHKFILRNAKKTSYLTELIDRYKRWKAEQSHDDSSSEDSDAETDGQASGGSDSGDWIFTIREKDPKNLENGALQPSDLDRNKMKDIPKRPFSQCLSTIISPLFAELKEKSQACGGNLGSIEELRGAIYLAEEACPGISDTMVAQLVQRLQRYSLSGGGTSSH

Key:
Test in all cases: co-IP; transfected HEK293T cells lysed in 20 mM Tris pH 7.4, 150 mM NaCl, 1 mM EDTA, 10% glycerol, 1% NP-40; immunoprecipitation with anti-Flag M2 beads for 3-4 h; immunoblot with anti-Myc, anti-HA or anti-Flag
[1] = target: T1, Flag-IKKβ-HLH (amino acids 577–756 of IKKβ) (human (amplified from HeLa cells)) (UniProt O14920)
T1 sequence: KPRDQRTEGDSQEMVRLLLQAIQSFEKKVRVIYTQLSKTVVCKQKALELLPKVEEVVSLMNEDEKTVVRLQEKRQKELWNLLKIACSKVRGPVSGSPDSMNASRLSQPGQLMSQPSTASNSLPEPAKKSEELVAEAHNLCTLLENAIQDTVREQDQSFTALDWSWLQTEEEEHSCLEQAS

[2] = target: T2, Flag-TAK1-N terminal (amino acids 1–303) (UniProt O43318)
T2 sequence: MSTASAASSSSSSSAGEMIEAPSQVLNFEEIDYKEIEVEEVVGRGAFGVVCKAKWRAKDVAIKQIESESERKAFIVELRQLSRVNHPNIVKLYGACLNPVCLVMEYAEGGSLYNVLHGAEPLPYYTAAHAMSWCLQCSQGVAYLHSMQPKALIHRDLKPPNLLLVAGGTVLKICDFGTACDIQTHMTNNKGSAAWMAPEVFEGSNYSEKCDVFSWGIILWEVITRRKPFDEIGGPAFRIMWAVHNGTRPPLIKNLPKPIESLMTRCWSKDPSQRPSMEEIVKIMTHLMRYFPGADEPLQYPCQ

Flag-TAK1 = target: T3, Flag-TAK1 (UniProt O43318)
T3 sequence: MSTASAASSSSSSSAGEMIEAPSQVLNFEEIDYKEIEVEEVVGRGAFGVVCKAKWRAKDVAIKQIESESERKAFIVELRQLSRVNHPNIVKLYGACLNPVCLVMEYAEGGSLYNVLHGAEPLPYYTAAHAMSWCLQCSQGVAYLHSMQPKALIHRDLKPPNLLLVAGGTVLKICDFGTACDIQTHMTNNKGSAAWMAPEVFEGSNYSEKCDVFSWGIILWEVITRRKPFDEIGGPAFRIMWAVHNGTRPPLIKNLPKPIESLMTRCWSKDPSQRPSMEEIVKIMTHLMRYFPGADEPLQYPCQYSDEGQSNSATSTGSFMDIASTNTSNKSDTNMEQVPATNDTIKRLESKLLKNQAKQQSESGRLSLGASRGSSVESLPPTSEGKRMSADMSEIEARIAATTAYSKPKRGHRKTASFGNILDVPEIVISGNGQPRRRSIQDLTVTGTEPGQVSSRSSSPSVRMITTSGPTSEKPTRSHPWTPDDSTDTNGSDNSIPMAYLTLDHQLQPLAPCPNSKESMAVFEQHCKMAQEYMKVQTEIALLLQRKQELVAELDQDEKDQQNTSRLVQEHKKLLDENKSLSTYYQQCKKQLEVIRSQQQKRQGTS

[3] = target: T4, Flag-IKKβ (human (amplified from HeLa cells)) (UniProt O14920)
T4 sequence: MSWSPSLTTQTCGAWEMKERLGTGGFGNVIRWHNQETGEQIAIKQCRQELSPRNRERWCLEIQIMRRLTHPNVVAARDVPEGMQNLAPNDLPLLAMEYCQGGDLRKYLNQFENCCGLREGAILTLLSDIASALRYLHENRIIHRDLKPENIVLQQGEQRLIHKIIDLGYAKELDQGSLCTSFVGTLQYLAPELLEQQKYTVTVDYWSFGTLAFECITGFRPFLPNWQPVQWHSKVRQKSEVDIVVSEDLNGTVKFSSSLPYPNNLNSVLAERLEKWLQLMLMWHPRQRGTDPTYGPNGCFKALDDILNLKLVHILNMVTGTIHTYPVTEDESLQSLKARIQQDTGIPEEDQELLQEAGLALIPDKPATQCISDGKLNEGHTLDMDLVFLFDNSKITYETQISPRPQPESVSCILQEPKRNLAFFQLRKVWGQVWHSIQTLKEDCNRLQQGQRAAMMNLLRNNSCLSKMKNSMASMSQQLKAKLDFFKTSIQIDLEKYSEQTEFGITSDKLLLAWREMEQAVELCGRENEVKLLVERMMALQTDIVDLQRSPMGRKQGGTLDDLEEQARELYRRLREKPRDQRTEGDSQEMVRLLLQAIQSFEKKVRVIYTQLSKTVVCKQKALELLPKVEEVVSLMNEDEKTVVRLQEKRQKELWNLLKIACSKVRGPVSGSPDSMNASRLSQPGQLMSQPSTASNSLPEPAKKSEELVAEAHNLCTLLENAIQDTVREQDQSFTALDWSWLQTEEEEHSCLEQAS

binding [1]: binds
binding [2]: binds
binding (Flag-TAK1): binds
binding [3]: binds
Substance: Myc-Stk24 (from UniProt Q9Y6E0-2 1-431)
